# Reference: PubChem BioAssay AID2685 (National Center for Advancing Translational Sciences (NCATS), 2010)
# The list shows a part of the results. These are further read-outs of the screen, such as a control signal, another cell line or another target. No call is given for them. Most of these compounds were active or inconclusive in the main read-out, so they are no random draw. Potencies come from curve fits of mixed quality, noted in brackets.
# Assay: qHTS Assay for Lipid Storage Modulators in Drosophila S3 Cells;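 as to cell number change: cells counted by Cell Tracker Red CMTPX staining in the red channel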
# Conditions: BODIPY lipid droplet fluorescence, 18-24 h; for cell number change: measured here: cell count max response, cells fed with added oleic acid
# In short: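 Drosophila S3 cells got compounds at several concentrations plus oleic acid (400 uM solution). Laser-scanning cytometry with 488 nm excitation read lipid droplets at 500-530 nm and cells at 575-640 nm. Percent activity was relative to 20 uM Triacsin C.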
# [1] = measured here: lipid fluorescence (Fed channel) AC50, cells fed with added oleic acid
# [2] = measured here: cell number channel AC50, cells fed with added oleic acid
Structure (SMILES),cell number change [%],AC50 [1],AC50 [2]
COc1ccc2oc(C(=O)N(C)Cc3ccc4c(c3)OCCO4)c(C)c2c1,27.4,"20600 nM [rising, single point]",–
O=C(O)c1ccc2c(=O)n3c(nc2c1)/C(=C/c1ccccc1OC(F)F)CC3,-35.5,–,"1160 nM [falling, full curve, poor fit]"
Cc1ccccc1NC(=S)NCc1ccc2c(c1)OCO2,-8.58,"16400 nM [falling, single point]",–
Cc1ccc(NC(=O)C2COc3ccccc3O2)cc1S(=O)(=O)N1CCCCC1 (configuration not stated),-7.68,"164 nM [falling, full curve, poor fit]",–
COC(=O)[C@H](Cc1ccccc1)NC(=O)NCCc1ccccc1F,22.7,–,–
CCC1=NC(c2ccccc2Cl)N(O)C1(C)C (configuration not stated),3.97,"25900 nM [falling, single point]",–
CCN(CC)CCCNc1oc(-c2cccc(Cl)c2)nc1C#N,31.7,–,"23100 nM [rising, single point]"
Cc1cc(Br)c(S(=O)(=O)n2nnc3ccccc32)cc1C,-63.3,"29100 nM [falling, single point]","29100 nM [falling, single point]"
CCN(CC)S(=O)(=O)c1cccc(C(=O)OCc2cc(=O)n3nc(C)sc3n2)c1,-2.06,"2910 nM [falling, full curve, poor fit]",–
N#CCSc1nc2ccccc2c2nc3ccccc3n12,–,–,"6510 nM [rising, single point]"
CCn1cc(Br)c(C(=O)Nc2sc3c(c2C(N)=O)CCCC3)n1,–,"6510 nM [falling, single point]",–
COc1cccc(NC(=O)COC(=O)Cc2ccc(Cl)cc2)c1,–,"651 nM [falling, partial curve, poor fit]",–
CC1CCCN(C(=O)CN2C(=O)CSc3ccc(S(=O)(=O)N4CCOCC4)cc32)C1 (configuration not stated),-2.47,"6510 nM [falling, single point]",–
COc1ccc(C2(C)NC(=O)N(CC(=O)Nc3ccc4c(c3)CCC4)C2=O)cc1OC (configuration not stated),25.9,"29100 nM [rising, partial curve, poor fit]",–
CCn1cc(S(=O)(=O)c2ccc(C)cc2)[nH]c1=O,-31.6,–,"29100 nM [falling, single point]"
COc1ccc(CCNC(=O)COc2cccc(-n3cnnn3)c2)cc1,3.85,–,–
COc1ccc(-c2oc3ncn4nc(Cc5ccccc5)nc4c3c2-c2ccc(OC)cc2)cc1,3.78,"1460 nM [rising, partial curve]",–
CCN1CCN(c2ccc(S(=O)(=O)N3CCCCC3)cc2NC(=O)/C=C/c2ccc(OC)c(OC)c2)CC1,–,"184 nM [rising, full curve, poor fit]",–
Cc1ccnc(-n2c(C)cc(/C=N/NC(=O)COc3cccc4cccnc34)c2C)c1,–,"731 nM [rising, partial curve, poor fit]","411 nM [rising, full curve]"
COc1cc(/C=C(\C#N)c2nc3ccccc3[nH]2)cc(Br)c1OCc1ccccc1,-6.01,"1300 nM [rising, partial curve]",–

# Compounds from the list above containing an NH in an aromatic ring, in the order listed:
Structure (SMILES),cell number change [%],AC50 [1],AC50 [2]
CCn1cc(S(=O)(=O)c2ccc(C)cc2)[nH]c1=O,-31.6,–,"29100 nM [falling, single point]"
COc1cc(/C=C(\C#N)c2nc3ccccc3[nH]2)cc(Br)c1OCc1ccccc1,-6.01,"1300 nM [rising, partial curve]",–

# Remaining list, next part.

Structure (SMILES),cell number change [%],AC50 [1],AC50 [2]
Cc1ccc(CNC(=O)CN2c3cccc4cccc(c34)S2(=O)=O)cc1,-15.3,"7310 nM [falling, partial curve]",–
Cc1ccc(CCC(=O)Nc2ccccc2C(=O)O)o1,0.885,"29100 nM [falling, single point]",–
O=S(=O)(c1cccc2nsnc12)N1CCN(C/C=C\c2ccccc2)CC1,–,"6510 nM [rising, single point]","2060 nM [rising, partial curve, poor fit]"
CCN(CC(=O)Nc1ccc(NC(C)=O)cc1)C(=O)C(c1ccccc1)c1ccccc1,3.99,"4.61 nM [rising, full curve, poor fit]",–
C=CCNC(=O)/C(=C\C=C\c1ccccc1)NC(=O)c1ccccc1Cl,20.9,"2590 nM [rising, partial curve]",–
C=CCNC(=O)Nc1ccc(Br)cc1Cl,-18,"580 nM [falling, partial curve, poor fit]",–
C=C1CCN(Cc2ccccc2)S(=O)(=O)c2ccccc21,20.6,"5800 nM [rising, partial curve]",–
CO/N=C(\Cn1ncc(N2CCCC2)c(Cl)c1=O)c1ccc(Cl)cc1,-11.4,–,–
Cc1cc2nc(CCN(C(=S)NCC3CCCO3)C3CCCC3)[nH]c2cc1C (configuration not stated),16.9,"1160 nM [rising, single point]","820 nM [rising, single point]"
O=Cc1ccc(Oc2ccc(F)cc2)nc1,-14.9,–,–
COC(=O)c1ccc(CNC(=O)COC(=O)c2cc(Cl)nc(Cl)c2)cc1,-4.03,–,–
CC1(C)CC(=O)C2=C(C1)c1c(ccc3ncccc13)NC2c1cccs1 (configuration not stated),-17.2,"2590 nM [rising, single point]",–
Cc1ccc(NC(=O)c2ccc3snnc3c2)cc1C,29,–,–
CC(C)(C)Sc1ccc(N)nc1,8.58,"7.31 nM [falling, full curve, poor fit]",–
NC(=O)C1CCN(CCC(=O)Nc2cccc(Cl)c2)CC1,1.4,"32600 nM [falling, single point]",–
Cc1cccc(NCc2nnc(-c3ccccc3)o2)c1C,-8.54,–,"1030 nM [rising, full curve, poor fit]"
Cc1ccc(S(=O)(=O)NCc2cccnc2)cc1C,35.8,–,"731 nM [rising, full curve]"
CN(C)S(=O)(=O)c1ccc(C(=O)NCc2nnc(SCC(=O)NCc3ccco3)o2)cc1,18.6,"2590 nM [rising, single point]",–
COc1ccc(/C=C2\SC(=S)N(NC(=O)c3ccncc3)C2=O)cc1OC,-2.23,–,–
CC1SC(C)C(=O)N(CC(=O)NC2CCCCC2)C1=O (configuration not stated),-9.49,"2060 nM [rising, partial curve]","1840 nM [rising, partial curve]"
